# Reference: publication PMC7819943, “Rice protein-binding microarrays: a tool to detect cis-acting elements near promoter regions in rice”
# Protein sequences, listed by entry. Tags and fused reporters are not part of them.
# UniProt Q0JBA9, entry or part of it: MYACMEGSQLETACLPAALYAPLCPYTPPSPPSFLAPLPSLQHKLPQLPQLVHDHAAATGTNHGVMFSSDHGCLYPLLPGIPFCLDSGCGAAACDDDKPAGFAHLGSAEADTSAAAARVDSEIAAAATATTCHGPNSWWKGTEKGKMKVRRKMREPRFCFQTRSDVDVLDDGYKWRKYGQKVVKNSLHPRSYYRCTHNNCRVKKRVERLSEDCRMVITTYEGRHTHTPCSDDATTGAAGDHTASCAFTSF
# This is one part of the list.
# Target: OsWRKY34 (Oryza sativa, UniProt Q0JBA9 1-250)
# Assay: protein-binding microarray (RPBM); PBS, 2% BSA, 51.3 ng/ul salmon testes DNA, 50 uM zinc acetate, 200 nM TF, 25 C, 1 h; high values mean tight binding
# Conditions: protein: recombinant; tags: N-terminal polyhistidine and DsRed monomer fusion (pET32a); label: CyDye5-dUTP incorporated in the synthesized complementary strand; 3' TTTTT single-stranded linker to array surface; dsDNA, one strand shown
# Summary of the method: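 Polyhistidine-tagged DsRed fusions of transcription factors, joined at the N-terminus, were expressed in E. coli BL21-CodonPlus and isolated on Ni–NTA. They were incubated at 200 nM for 1 h at 25 °C on a custom Agilent array, double-stranded and BSA-blocked, in PBS with 2% BSA, salmon testes DNA and 50 µM zinc acetate. The binding signal is per-feature fluorescence intensity (arbitrary units) read on an Axon 4000B scanner after washing.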
row,Sequence,binding signal
1,TGTGGGACGATGGGGAGGTGTGGGGACGCACGCGGGGCGACGGAGTCACCTAGTGCAG,10200 fluorescence intensity (a.u.)
2,CAGAGCGACTTCCCCAATCCATCATCCCGTCTCCGTCCTCCGGAGTCACCTAGTGCAG,8830 fluorescence intensity (a.u.)
3,GCTTAATCACATTGTTGCGCCCCTTCTTATCCTCTTCTTGCGGAGTCACCTAGTGCAG,10600 fluorescence intensity (a.u.)
4,TTGGGTTCAGGCTTTAATTTTTTTTCAATTCATCAGGCGTCGGAGTCACCTAGTGCAG,8740 fluorescence intensity (a.u.)
5,TTGCGTGTTGTTATTACTCCTTGGATCGACTCGGCCAGCACGGAGTCACCTAGTGCAG,9930 fluorescence intensity (a.u.)
6,TTCCTTTAATATGCACCCACCAGCTGTCAAGTCAGCGCCTCGGAGTCACCTAGTGCAG,8050 fluorescence intensity (a.u.)
7,TTAAGTGGGTGGTGGAGTCGGAGGGGACTCGGCATGGTTGCGGAGTCACCTAGTGCAG,9900 fluorescence intensity (a.u.)
8,ATTTTGGCCTTTTTCTTTTACTTGGTCAAGTTTGGTTATACGGAGTCACCTAGTGCAG,10200 fluorescence intensity (a.u.)
9,TGAGAGAAGCACCCATGGAACACATCAGGATACACTGTTTCGGAGTCACCTAGTGCAG,8230 fluorescence intensity (a.u.)
10,ATATATATATATATATATATATCCATGGCTGAAAAATACCCGGAGTCACCTAGTGCAG,9920 fluorescence intensity (a.u.)
11,GGCCTTAGTGCCAGAACCTGTTTATTTCTTCTGTTTTATACGGAGTCACCTAGTGCAG,9420 fluorescence intensity (a.u.)
12,CATGTTTTGGATACACTCCACGTTGATCTAGTCTCATATGCGGAGTCACCTAGTGCAG,8730 fluorescence intensity (a.u.)
13,GTCTAATTTGGTCCATTTCTTCAATCCCCGCCATTAATACCGGAGTCACCTAGTGCAG,9340 fluorescence intensity (a.u.)
14,GTAGTTTGGGCTTCGTGGAATTTAGCCTGCTCATTGCAACCGGAGTCACCTAGTGCAG,8660 fluorescence intensity (a.u.)
15,TTCACTAAACGGAACATGGTTTGCTTGCTTGAACGGTCATCGGAGTCACCTAGTGCAG,9160 fluorescence intensity (a.u.)
16,CCTCGTCAACCGCATCTTTCCCTTTTCGCTTCTCTCGAGACGGAGTCACCTAGTGCAG,10400 fluorescence intensity (a.u.)
17,ACCCTTCTTTCAGAATGCATGAGGCTCGAGCACTTGTCTTCGGAGTCACCTAGTGCAG,8140 fluorescence intensity (a.u.)
18,CTCCTGTCTCTTTTTCTATATTCCTTATTTATAATTCCGACGGAGTCACCTAGTGCAG,9920 fluorescence intensity (a.u.)
19,GTAGCCGCTTCCTGCCTTCCTTCCCCTTGCTCTTGCATTTCGGAGTCACCTAGTGCAG,8340 fluorescence intensity (a.u.)
20,CCTTTAAGTCTATCTCTCTCATTCAATTTCTGCATTTTTCCGGAGTCACCTAGTGCAG,9270 fluorescence intensity (a.u.)
21,GTGCTATCTGTTCTCATATCACTACTGATCTTTGCTGGGTCGGAGTCACCTAGTGCAG,8440 fluorescence intensity (a.u.)

row,Sequence,binding signal
1,GCGCGCTTCCGTCCACTCGCACTGATCCTTCCGGCGGAGCCGGAGTCACCTAGTGCAG,9390 fluorescence intensity (a.u.)
2,AAATGCCTGTTCACTTTGATGCCATTTTCAACCTTACCAACGGAGTCACCTAGTGCAG,8100 fluorescence intensity (a.u.)
3,TTTTCGAGCTCTTCCAACGTCACACCTCTTATCATTTTGACGGAGTCACCTAGTGCAG,10400 fluorescence intensity (a.u.)
4,ATCCTTTATACATGACTTGCTTATCTTATAACTGAGCAAACGGAGTCACCTAGTGCAG,8050 fluorescence intensity (a.u.)
5,TTTATTTGGGTCATTTCTTCATCCGACAAAGCGATTTGTACGGAGTCACCTAGTGCAG,8080 fluorescence intensity (a.u.)
6,GGCAGCCCACAGCCCATAGACCACACCGCACATCGTCTTCCGGAGTCACCTAGTGCAG,8590 fluorescence intensity (a.u.)
7,GATCGAATCCGACCTTAATTTTCACCTGCTCGCTGATCTCCGGAGTCACCTAGTGCAG,8600 fluorescence intensity (a.u.)
8,AGAGAGACATTATAATTTGCCGTTGCTCATTTTCTATTTTCGGAGTCACCTAGTGCAG,10200 fluorescence intensity (a.u.)
9,CACCCCGTATCAACACGCGTCGCTCTGCCGTCCGGCTCTCCGGAGTCACCTAGTGCAG,8400 fluorescence intensity (a.u.)
10,AAAAACTCGCTGGCTTCCACCGACCGCTTCACTCGCAGCACGGAGTCACCTAGTGCAG,8180 fluorescence intensity (a.u.)
11,GCCATTTCAGTGACCATACACACTAGTACTCCACTACACACGGAGTCACCTAGTGCAG,8070 fluorescence intensity (a.u.)
12,TTATAAATATTTAATGCAGTTGATTTTGATCATAAAGTTTCGGAGTCACCTAGTGCAG,8790 fluorescence intensity (a.u.)
13,AATCCATGAAATCCTCGTCGTCTTGCCGTGTTTGGTTGGGCGGAGTCACCTAGTGCAG,11000 fluorescence intensity (a.u.)
14,TACTCATCTCTCTCAACACGTAATTTGTTCTGTTTGGTGACGGAGTCACCTAGTGCAG,9570 fluorescence intensity (a.u.)
15,GTTCACTACATCTGCTGCTGCTGGTCGTCGTCGTTGTCCTCGGAGTCACCTAGTGCAG,8200 fluorescence intensity (a.u.)
16,CTTAGTCCGATTCCGAGTAGTTCGATCGTCGCGTGACTCCCGGAGTCACCTAGTGCAG,9020 fluorescence intensity (a.u.)
17,ATCGCGCAGCTGTGTTCTGCTTTGCCGGGTAGGCGTTTTTCGGAGTCACCTAGTGCAG,10600 fluorescence intensity (a.u.)
18,CGTTGTTTAAGTCTTATTATAGCTAGATCGTTCATCCTTACGGAGTCACCTAGTGCAG,8510 fluorescence intensity (a.u.)
19,GCTTCGCGCGCGCGCGCGTCTCTCTCCGTCCCAAGCTCGCCGGAGTCACCTAGTGCAG,9720 fluorescence intensity (a.u.)
20,CTTCGGCCTTCGTTTGACCGCTTCTAATCTATGTTATGTGCGGAGTCACCTAGTGCAG,8670 fluorescence intensity (a.u.)
21,CGCCTCACTTGCGCCGGCGACCGGATGACGCCTGCATCCCCGGAGTCACCTAGTGCAG,8650 fluorescence intensity (a.u.)

# Reformatted: entries from further up.
row | Sequence | binding signal
15 | GTTCACTACATCTGCTGCTGCTGGTCGTCGTCGTTGTCCTCGGAGTCACCTAGTGCAG | 8200 fluorescence intensity (a.u.)
16 | CTTAGTCCGATTCCGAGTAGTTCGATCGTCGCGTGACTCCCGGAGTCACCTAGTGCAG | 9020 fluorescence intensity (a.u.)
17 | ATCGCGCAGCTGTGTTCTGCTTTGCCGGGTAGGCGTTTTTCGGAGTCACCTAGTGCAG | 10600 fluorescence intensity (a.u.)
18 | CGTTGTTTAAGTCTTATTATAGCTAGATCGTTCATCCTTACGGAGTCACCTAGTGCAG | 8510 fluorescence intensity (a.u.)

# Continued.

row,Sequence,binding signal
1,CGGGGATGCGGCGGGCTGTGGCGTGATGTGTGGATCGGAGCGGAGTCACCTAGTGCAG,10100 fluorescence intensity (a.u.)
2,TGAGGTTGGGGTTGTGGCGCGGGACGAAGGCGGAGGACTCCGGAGTCACCTAGTGCAG,9840 fluorescence intensity (a.u.)
3,TGGCAATGGGGCGGGTCGGGGCCGGGTTGGTCTGGAACGGCGGAGTCACCTAGTGCAG,14500 fluorescence intensity (a.u.)
4,CCTCATGATGATGCCGAACGTCTCGACATTGACCGCGCCCCGGAGTCACCTAGTGCAG,9370 fluorescence intensity (a.u.)
5,GGCCTGTTTTGTTTCGGGCTAACGTTTGGCCCACGAAACACGGAGTCACCTAGTGCAG,8100 fluorescence intensity (a.u.)
6,TTTTTCTTTTCTCGCGTACAGCTGGACGCTTCGTTTGCTTCGGAGTCACCTAGTGCAG,11100 fluorescence intensity (a.u.)
7,AGTTGAATTTTCTAGTTACTACTAACTAATTGCTTCTCTACGGAGTCACCTAGTGCAG,8270 fluorescence intensity (a.u.)
8,ATTAGCACACCATTGAGCATGAGCCTGACAAACTTCATTTCGGAGTCACCTAGTGCAG,8080 fluorescence intensity (a.u.)
9,TAGCCCACTGTAACATGTTCACATTGGATAAAATCAAGATCGGAGTCACCTAGTGCAG,8250 fluorescence intensity (a.u.)
10,GCCCACGCTCACCGACTCCATCGACGTCACGCTCACCGCCCGGAGTCACCTAGTGCAG,8480 fluorescence intensity (a.u.)
11,CGCCTACTTCTTCTGCATTACCCGCGCCTCCCGAAAAAAACGGAGTCACCTAGTGCAG,8510 fluorescence intensity (a.u.)
12,GTCTAGTTCACATCGTGTCAGTGTTCCAAAATCGCCTAGCCGGAGTCACCTAGTGCAG,9280 fluorescence intensity (a.u.)
13,GGCAAGAGCTTAGAGGATGATGATAAAGAAGGGTTCTTCCCGGAGTCACCTAGTGCAG,8350 fluorescence intensity (a.u.)
14,TGGCATGGTGGTACTACTACTCTCTGTTCCGTTTCAAAAACGGAGTCACCTAGTGCAG,9500 fluorescence intensity (a.u.)
15,CGGAAGCATATATATGTACACTGTCACTGACATGCTCGTCCGGAGTCACCTAGTGCAG,8240 fluorescence intensity (a.u.)
16,AAAGGGAAAACAACTTATTCCTTTTTGCATTTTATTTTCCCGGAGTCACCTAGTGCAG,9590 fluorescence intensity (a.u.)
17,CTCTGTGTTGTTTTTGGCATGTGTTTGATATTTGGAGTTCCGGAGTCACCTAGTGCAG,16600 fluorescence intensity (a.u.)
18,GCTTGGCCGTCGGGGTACGGGTACGGCGCCGTGTTGACCACGGAGTCACCTAGTGCAG,9100 fluorescence intensity (a.u.)
19,TGTCGATGTCGCATACTCCGTTCGGTTTTATTTTAATTGACGGAGTCACCTAGTGCAG,9800 fluorescence intensity (a.u.)
20,CGACCCCTGCAAACTTATTTCTGTCGGTTTAATCTCTCTCCGGAGTCACCTAGTGCAG,9960 fluorescence intensity (a.u.)
21,TTGACTTTTTAACCAACGTTTGACTATTCGTCTTATTCAACGGAGTCACCTAGTGCAG,10100 fluorescence intensity (a.u.)

row,Sequence,binding signal
1,GCTGCTTTTTTTTCTCTTCCTATGTGGTTCTTCGTCATCACGGAGTCACCTAGTGCAG,8430 fluorescence intensity (a.u.)
2,CCTTTTCAGTGCCATTGATTTTTCTTTTATTTTGTCTCGTCGGAGTCACCTAGTGCAG,10000 fluorescence intensity (a.u.)
3,ACCCGCCGTCTGCCACGTCAGCTTGCCGCCCACCTCTGGGCGGAGTCACCTAGTGCAG,9540 fluorescence intensity (a.u.)
4,TTCACCTCCCAACATTCTCGCCGATCTTTTTCCTCTCATCCGGAGTCACCTAGTGCAG,9670 fluorescence intensity (a.u.)
5,CCGCGCGGCACTACTTCCGGCAGCTCGTCTCCGCCGTCGACGGAGTCACCTAGTGCAG,9150 fluorescence intensity (a.u.)
6,GCATGTGTGCCATTCGTTCATTCATATTCTCATCACTAGTCGGAGTCACCTAGTGCAG,9720 fluorescence intensity (a.u.)
7,CCTTTCTGGCTATAATCTCTCTTGTTCCGTTTTCGCAATGCGGAGTCACCTAGTGCAG,8400 fluorescence intensity (a.u.)
8,CTTGCATGTTTGTGGAGTGATATATTACATATTGATCTATCGGAGTCACCTAGTGCAG,9230 fluorescence intensity (a.u.)
9,TGTGGTTGGGTTCAGGGATGATTTTGCAAACTACAGATGACGGAGTCACCTAGTGCAG,9240 fluorescence intensity (a.u.)
10,CCGCGCCACCGATGTTCTCATCCAAACACATCACCTCCTACGGAGTCACCTAGTGCAG,8030 fluorescence intensity (a.u.)
11,GGGCCCGCCATCGACCGAGCCACCGAAATCCCGCGCAAAGCGGAGTCACCTAGTGCAG,8420 fluorescence intensity (a.u.)
12,TTGCCCATTAATTTACCCAAGTATCCATGCGGACCATGCCCGGAGTCACCTAGTGCAG,8940 fluorescence intensity (a.u.)
13,CTCTCTATAATGTCATTGGACCTACTTTACATGGTTTAAACGGAGTCACCTAGTGCAG,8830 fluorescence intensity (a.u.)
14,ACCGCTATCCCTCATCACCCACTGACAAGTTGCCCCACACCGGAGTCACCTAGTGCAG,10500 fluorescence intensity (a.u.)
15,TTGTCTCAGCTGCATTATCCTATTTTTAGCTCCCAAATCTCGGAGTCACCTAGTGCAG,9070 fluorescence intensity (a.u.)
16,CTAGTCCTTCGTTTGAGTCCTTATATAACATTGATAGTACCGGAGTCACCTAGTGCAG,8500 fluorescence intensity (a.u.)
17,TCGTTGTCCGCATAGTTTAGATTAGATTTACACGGCTTTACGGAGTCACCTAGTGCAG,9150 fluorescence intensity (a.u.)
18,GCGCCCGCTTGCTGCCATTTTGCTTGTGGACTACCCTTTCCGGAGTCACCTAGTGCAG,10700 fluorescence intensity (a.u.)
19,CGCGTTATTTTCAGCGGTTGGGTTTGGATGATTAGCTACACGGAGTCACCTAGTGCAG,9550 fluorescence intensity (a.u.)
20,CATCTTCGCAGCAACTCAGTCATCAGCCCATAGCCATTTACGGAGTCACCTAGTGCAG,8950 fluorescence intensity (a.u.)
21,CTTCTCGTGCAACTCTAGTACATGGGTTTCGGAATAGTGACGGAGTCACCTAGTGCAG,9640 fluorescence intensity (a.u.)
